Laboratory results as given in the supplement of paper PMC11006884.
This is a selection; strong and weak results do not stand in their true shares. The data scatter; read single values as rough.

Protein sequences, listed by entry. Tags and fused reporters are not part of them. Lines headed by an entry give the natural chain unless they say otherwise; changes in a name come on top.
UniProt Q00610: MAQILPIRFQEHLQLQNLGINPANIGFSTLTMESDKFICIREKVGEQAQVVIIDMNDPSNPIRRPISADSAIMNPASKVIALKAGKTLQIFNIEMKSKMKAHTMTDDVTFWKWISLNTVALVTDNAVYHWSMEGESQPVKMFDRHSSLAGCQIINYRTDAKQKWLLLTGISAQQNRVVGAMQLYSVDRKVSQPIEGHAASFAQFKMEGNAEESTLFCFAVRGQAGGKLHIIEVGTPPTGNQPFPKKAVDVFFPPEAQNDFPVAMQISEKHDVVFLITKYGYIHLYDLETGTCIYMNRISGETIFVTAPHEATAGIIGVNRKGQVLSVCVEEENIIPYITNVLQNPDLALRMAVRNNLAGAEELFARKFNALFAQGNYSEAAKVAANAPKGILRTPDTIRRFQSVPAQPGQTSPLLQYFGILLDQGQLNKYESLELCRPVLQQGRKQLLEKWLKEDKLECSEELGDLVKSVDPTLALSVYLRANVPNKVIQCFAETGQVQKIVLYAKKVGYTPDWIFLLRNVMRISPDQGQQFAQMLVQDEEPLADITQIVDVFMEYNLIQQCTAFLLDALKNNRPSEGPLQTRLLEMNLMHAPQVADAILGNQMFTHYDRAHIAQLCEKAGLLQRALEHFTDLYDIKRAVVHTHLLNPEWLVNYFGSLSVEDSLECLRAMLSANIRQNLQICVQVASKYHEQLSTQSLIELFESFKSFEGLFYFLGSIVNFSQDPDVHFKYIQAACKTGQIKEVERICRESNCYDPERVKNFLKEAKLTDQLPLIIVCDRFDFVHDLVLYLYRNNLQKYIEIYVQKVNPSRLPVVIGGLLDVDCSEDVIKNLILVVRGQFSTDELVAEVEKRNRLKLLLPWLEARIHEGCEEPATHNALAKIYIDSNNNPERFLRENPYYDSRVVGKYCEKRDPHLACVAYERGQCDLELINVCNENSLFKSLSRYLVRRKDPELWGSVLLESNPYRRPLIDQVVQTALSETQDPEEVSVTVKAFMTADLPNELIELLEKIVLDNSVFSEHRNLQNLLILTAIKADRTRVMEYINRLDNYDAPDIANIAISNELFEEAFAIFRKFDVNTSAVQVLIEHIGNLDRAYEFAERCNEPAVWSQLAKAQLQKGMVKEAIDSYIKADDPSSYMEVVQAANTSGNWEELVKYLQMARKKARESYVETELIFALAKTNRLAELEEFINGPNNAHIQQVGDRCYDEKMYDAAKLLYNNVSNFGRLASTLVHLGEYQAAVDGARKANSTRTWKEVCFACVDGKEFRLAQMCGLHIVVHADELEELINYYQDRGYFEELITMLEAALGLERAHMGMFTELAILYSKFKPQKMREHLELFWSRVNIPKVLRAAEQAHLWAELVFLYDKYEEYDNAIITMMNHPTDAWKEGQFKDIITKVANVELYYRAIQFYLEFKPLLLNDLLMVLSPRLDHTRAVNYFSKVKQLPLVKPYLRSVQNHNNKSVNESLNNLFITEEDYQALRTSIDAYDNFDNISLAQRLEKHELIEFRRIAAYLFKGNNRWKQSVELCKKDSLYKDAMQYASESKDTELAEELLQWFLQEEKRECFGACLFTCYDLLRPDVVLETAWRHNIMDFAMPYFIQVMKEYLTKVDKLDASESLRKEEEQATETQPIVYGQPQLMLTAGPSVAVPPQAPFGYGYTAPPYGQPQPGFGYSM
UniProt P78527, whole entry, looked up: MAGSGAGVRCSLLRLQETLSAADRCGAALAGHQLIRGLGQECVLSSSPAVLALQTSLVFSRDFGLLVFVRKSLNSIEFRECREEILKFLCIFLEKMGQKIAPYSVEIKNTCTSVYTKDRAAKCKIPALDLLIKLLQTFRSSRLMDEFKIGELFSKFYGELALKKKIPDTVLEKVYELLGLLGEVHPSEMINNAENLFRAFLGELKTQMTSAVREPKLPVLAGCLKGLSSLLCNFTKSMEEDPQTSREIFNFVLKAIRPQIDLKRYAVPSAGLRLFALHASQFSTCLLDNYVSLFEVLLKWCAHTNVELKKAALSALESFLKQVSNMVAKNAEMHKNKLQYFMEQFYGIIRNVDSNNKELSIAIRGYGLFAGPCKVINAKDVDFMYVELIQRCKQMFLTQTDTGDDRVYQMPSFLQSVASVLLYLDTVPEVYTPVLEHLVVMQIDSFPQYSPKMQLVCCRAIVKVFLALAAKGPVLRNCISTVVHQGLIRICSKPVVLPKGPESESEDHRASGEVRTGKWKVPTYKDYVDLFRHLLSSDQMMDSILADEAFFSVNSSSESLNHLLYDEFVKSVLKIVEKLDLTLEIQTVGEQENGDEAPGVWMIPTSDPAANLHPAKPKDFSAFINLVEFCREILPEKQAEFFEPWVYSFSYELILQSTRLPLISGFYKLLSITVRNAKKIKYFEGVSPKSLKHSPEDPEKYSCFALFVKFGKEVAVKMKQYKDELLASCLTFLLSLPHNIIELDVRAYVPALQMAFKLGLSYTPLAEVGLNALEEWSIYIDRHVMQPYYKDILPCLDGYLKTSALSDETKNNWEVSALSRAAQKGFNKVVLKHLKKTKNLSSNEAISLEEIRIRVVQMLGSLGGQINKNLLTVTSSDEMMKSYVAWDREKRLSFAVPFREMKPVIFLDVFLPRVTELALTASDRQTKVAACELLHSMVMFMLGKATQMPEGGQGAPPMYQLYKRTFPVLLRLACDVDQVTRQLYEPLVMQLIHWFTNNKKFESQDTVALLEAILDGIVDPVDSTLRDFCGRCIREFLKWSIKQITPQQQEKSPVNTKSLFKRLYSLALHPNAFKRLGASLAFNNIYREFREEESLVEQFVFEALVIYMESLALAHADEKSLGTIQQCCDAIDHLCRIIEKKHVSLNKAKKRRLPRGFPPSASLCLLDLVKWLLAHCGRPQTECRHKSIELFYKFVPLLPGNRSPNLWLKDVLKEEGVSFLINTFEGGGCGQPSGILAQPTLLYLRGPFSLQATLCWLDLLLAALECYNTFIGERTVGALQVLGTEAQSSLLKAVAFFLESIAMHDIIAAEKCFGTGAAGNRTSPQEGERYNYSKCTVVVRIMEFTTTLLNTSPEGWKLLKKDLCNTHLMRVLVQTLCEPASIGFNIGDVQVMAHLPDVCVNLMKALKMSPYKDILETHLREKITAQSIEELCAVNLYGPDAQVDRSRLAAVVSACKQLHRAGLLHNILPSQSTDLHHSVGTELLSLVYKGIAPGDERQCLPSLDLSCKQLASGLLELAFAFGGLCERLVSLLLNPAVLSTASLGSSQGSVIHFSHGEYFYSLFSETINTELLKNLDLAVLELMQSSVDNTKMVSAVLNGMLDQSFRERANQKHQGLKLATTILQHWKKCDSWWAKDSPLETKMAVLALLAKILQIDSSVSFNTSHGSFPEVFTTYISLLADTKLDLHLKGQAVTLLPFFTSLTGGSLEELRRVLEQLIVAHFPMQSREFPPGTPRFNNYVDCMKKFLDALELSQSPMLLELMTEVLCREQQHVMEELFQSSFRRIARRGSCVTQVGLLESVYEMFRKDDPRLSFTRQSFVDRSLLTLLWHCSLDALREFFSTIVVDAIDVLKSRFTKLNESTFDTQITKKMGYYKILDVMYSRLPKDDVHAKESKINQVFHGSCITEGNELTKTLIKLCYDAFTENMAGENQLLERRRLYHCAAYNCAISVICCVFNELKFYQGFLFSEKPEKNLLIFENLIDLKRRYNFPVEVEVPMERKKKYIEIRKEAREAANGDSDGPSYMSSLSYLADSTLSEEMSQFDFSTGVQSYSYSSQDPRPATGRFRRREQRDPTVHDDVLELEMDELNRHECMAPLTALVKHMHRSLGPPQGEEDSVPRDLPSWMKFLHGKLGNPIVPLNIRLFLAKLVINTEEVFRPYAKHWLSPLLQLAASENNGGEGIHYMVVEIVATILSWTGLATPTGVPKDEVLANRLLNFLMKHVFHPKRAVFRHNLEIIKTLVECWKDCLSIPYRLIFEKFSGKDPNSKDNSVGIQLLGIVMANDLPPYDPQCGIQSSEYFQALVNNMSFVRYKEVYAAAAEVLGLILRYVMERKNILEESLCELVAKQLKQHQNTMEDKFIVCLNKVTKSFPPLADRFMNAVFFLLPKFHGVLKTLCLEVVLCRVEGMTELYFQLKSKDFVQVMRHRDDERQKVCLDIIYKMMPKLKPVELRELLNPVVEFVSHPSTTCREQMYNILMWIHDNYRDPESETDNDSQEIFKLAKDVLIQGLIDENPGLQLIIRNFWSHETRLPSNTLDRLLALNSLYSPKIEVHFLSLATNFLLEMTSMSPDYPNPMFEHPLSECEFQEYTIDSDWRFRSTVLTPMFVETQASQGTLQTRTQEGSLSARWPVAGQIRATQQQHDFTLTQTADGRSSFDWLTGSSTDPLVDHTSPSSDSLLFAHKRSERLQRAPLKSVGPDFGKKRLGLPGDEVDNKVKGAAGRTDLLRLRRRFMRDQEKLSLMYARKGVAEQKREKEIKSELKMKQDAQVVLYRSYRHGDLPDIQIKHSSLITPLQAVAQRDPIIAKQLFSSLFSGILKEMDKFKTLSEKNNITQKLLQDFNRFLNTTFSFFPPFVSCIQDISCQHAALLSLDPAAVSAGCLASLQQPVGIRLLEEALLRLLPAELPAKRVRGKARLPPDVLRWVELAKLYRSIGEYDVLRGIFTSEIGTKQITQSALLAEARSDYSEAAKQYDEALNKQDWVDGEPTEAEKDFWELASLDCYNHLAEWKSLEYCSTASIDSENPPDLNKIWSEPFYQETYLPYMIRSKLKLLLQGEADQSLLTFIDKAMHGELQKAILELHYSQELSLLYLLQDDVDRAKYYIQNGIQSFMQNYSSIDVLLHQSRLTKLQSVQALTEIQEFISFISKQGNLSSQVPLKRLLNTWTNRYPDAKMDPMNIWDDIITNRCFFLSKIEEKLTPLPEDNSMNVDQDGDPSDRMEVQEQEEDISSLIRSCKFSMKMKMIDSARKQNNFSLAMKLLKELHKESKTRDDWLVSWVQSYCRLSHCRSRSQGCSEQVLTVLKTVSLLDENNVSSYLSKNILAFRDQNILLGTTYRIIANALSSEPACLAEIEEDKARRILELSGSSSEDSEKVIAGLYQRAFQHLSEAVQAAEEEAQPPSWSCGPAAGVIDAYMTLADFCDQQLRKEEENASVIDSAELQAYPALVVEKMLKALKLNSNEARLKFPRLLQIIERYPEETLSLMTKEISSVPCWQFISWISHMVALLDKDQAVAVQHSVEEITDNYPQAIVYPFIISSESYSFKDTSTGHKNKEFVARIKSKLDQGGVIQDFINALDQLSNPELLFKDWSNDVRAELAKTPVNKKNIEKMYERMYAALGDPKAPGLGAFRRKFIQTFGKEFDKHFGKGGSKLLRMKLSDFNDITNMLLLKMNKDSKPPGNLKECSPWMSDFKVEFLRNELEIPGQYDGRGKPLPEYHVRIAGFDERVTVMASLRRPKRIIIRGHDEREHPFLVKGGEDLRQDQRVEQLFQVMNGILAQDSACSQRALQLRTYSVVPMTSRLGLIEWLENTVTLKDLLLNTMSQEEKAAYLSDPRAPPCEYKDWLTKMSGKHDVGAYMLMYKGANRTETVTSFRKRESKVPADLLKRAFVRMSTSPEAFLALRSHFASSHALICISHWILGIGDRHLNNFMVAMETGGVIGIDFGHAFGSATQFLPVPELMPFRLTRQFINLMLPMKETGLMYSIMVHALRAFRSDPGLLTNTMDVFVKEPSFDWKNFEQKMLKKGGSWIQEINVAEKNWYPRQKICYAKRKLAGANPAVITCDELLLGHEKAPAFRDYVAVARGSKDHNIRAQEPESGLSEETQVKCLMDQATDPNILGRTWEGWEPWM
UniProt P78371: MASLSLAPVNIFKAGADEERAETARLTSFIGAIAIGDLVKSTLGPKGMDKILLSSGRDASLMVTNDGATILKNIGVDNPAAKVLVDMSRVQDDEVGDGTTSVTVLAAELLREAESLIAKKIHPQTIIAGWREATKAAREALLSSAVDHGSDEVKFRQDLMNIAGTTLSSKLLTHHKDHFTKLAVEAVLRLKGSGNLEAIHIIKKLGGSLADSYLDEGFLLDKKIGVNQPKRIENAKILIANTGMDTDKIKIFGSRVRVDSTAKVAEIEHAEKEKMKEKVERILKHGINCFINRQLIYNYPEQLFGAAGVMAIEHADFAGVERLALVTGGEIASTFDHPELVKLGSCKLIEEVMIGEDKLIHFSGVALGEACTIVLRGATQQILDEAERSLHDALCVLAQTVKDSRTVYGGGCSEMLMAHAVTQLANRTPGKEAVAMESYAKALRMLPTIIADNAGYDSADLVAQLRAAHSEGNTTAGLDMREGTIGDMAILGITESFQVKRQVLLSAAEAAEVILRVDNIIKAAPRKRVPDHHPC
UniProt P62633: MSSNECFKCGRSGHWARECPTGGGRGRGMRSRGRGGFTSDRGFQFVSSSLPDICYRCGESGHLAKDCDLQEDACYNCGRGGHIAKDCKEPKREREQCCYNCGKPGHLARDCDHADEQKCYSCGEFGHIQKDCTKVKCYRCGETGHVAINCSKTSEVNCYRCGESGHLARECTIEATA

Compound: COC(=O)/C=C/c1ccccc1 [methyl cinnamate]
Experiment: log2 ratio of iodoacetamide-alkyne labeling of the cysteine site, DMSO over compound (competition); higher = stronger covalent engagement of the cysteine by the compound, active = 1 or more
Settings: 500 µM; treatment time 1 h; system: HEK293T cell lysate
In short: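 After 1 h at ambient temperature with vehicle or electrophile (500 µM), HEK293T lysate (2 mg/mL) was labelled for 1 h with iodoacetamide alkyne and clicked to sCIP-TMT reagents. Pooled samples were trypsin-digested overnight at 37 °C, streptavidin-enriched, acid-eluted and analysed by Orbitrap Eclipse LC-MS/MS with FAIMS, then quantified in FragPipe over three replicates with duplicate channels. A cysteine's log2 competition ratio is its mean control-channel over mean compound-channel reporter intensity. Cysteines quantified in only one replicate were not included.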

Target	log2 ratio of iodoacetamide-alkyne labeling
AP2B1 C918 (UniProt P63010)	inactive: -0.139
EEF1A1 C370 (UniProt P68104)	inactive: -0.172
CDR2 C121 (UniProt Q01850)	inactive: -0.135
HNRNPU C389 (UniProt Q00839)	inactive: 0.788
RPL10A C66 (UniProt P62906)	inactive: -0.0333
UniProt P63244_C286	inactive: 0.199
SORD C350 (UniProt Q00796)	inactive: -0.0414
ACTG1 C17 (UniProt P63261)	inactive: -0.0557
FABP5 C127 (UniProt Q01469)	inactive: 0.00798
NTHL1 C290 (UniProt P78549)	inactive: -0.0758
CLTC C491 (UniProt Q00610)	inactive: 0.149
UniProt P78527_C3837	inactive: 0.282
UniProt P62829_C28	inactive: 0.223
UniProt P78527_C1904	inactive: 0.14
UniProt P62995_C118	inactive: -0.0826
MPP1 C242 (UniProt Q00013)	inactive: 0.287
UniProt P84090_C28	inactive: 0.117
TFAM C246 (UniProt Q00059)	inactive: 0.376
MRPS6 C105 (UniProt P82932)	inactive: 0.231

In a second layout: entries from further up.

| Target | log2 ratio of iodoacetamide-alkyne labeling |
| --- | --- |
| SORD C350 (UniProt Q00796) | inactive: -0.0414 |
| FABP5 C127 (UniProt Q01469) | inactive: 0.00798 |
| CLTC C491 (UniProt Q00610) | inactive: 0.149 |

The list goes on.

Target	log2 ratio of iodoacetamide-alkyne labeling
UniProt P78527_C3403	inactive: -0.208
UniProt P62263_C31	inactive: -0.189
UniProt P62913_C21	inactive: 0.124
CDK5 C290 (UniProt Q00535)	inactive: 0.036
SPTBN1 C1389 (UniProt Q01082)	inactive: -0.0689
GTF2I C80 (UniProt P78347)	inactive: 0.232
MRPS21 C87 (UniProt P82921)	inactive: 0.015
CCT2 C412 (UniProt P78371)	inactive: 0.00154
RPL10A C164 (UniProt P62906)	inactive: -0.0529
UniProt P68431_C111	inactive: 0.0523
XIAP C202 (UniProt P98170)	inactive: 0.121
CNBP C54 (UniProt P62633)	inactive: 0.0102
UniProt P78527_C3420	inactive: 0.29
CNBP C57 (UniProt P62633)	inactive: 0.0536
UniProt P83731_C36	inactive: 0.35
UniProt P78527_C931	inactive: -0.0513
HMGCS1 C86 (UniProt Q01581)	inactive: 0.113
CLTC C1528 (UniProt Q00610)	inactive: 0.0255
